Experimental data taken from paper PMC12439347.
These are yes or no findings as the source states them, for the method shown. For some of these results: In cells and extracts the contact can be indirect. Some binding calls cover weakened binding; strength is not graded here.

Amino acid sequences for entries named in this document (tags omitted).
UniProt Q9NQT8: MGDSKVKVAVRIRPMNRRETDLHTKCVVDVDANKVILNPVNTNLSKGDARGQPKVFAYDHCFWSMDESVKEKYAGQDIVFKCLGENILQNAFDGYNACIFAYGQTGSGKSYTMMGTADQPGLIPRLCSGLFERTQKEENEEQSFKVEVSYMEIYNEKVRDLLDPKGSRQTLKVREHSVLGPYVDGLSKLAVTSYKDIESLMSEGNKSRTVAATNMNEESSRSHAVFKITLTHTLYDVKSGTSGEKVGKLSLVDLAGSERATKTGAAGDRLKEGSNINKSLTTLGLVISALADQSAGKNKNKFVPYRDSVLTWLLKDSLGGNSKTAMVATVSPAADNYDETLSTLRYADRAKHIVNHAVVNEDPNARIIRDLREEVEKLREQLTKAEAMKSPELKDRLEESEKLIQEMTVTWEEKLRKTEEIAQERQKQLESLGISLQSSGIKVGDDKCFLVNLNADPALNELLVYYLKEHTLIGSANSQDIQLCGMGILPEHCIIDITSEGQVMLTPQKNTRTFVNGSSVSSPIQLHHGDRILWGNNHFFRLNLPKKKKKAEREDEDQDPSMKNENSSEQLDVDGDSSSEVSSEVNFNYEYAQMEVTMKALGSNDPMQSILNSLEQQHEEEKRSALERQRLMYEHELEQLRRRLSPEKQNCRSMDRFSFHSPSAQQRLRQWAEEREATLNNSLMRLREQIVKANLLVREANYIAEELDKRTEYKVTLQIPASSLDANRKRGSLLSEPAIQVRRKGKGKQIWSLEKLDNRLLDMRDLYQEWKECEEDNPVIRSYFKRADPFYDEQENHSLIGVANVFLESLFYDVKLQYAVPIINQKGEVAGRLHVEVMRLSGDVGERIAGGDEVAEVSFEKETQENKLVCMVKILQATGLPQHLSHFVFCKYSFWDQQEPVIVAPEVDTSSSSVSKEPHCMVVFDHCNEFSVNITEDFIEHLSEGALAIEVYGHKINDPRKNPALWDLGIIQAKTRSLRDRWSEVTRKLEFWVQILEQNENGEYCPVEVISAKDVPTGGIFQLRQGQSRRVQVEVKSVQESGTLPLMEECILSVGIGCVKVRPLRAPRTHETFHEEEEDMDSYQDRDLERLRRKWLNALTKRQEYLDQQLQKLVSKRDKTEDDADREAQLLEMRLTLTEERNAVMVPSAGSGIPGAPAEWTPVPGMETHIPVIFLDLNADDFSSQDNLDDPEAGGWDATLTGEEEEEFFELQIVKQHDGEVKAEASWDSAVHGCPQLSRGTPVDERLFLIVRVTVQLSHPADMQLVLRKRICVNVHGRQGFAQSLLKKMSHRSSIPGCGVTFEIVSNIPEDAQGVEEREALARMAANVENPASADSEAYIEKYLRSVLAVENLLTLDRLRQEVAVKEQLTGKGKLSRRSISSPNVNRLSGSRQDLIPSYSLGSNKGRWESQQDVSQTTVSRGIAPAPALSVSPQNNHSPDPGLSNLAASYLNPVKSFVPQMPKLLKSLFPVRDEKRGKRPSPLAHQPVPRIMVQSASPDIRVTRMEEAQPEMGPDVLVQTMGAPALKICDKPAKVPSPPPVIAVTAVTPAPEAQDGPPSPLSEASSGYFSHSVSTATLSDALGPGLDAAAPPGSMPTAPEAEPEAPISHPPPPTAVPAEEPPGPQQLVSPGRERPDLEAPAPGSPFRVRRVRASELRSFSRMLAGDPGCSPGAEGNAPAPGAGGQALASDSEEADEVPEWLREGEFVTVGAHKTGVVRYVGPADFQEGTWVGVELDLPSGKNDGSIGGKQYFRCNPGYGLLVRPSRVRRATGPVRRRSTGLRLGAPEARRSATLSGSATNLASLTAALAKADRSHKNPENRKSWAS
UniProt E9Q4K7: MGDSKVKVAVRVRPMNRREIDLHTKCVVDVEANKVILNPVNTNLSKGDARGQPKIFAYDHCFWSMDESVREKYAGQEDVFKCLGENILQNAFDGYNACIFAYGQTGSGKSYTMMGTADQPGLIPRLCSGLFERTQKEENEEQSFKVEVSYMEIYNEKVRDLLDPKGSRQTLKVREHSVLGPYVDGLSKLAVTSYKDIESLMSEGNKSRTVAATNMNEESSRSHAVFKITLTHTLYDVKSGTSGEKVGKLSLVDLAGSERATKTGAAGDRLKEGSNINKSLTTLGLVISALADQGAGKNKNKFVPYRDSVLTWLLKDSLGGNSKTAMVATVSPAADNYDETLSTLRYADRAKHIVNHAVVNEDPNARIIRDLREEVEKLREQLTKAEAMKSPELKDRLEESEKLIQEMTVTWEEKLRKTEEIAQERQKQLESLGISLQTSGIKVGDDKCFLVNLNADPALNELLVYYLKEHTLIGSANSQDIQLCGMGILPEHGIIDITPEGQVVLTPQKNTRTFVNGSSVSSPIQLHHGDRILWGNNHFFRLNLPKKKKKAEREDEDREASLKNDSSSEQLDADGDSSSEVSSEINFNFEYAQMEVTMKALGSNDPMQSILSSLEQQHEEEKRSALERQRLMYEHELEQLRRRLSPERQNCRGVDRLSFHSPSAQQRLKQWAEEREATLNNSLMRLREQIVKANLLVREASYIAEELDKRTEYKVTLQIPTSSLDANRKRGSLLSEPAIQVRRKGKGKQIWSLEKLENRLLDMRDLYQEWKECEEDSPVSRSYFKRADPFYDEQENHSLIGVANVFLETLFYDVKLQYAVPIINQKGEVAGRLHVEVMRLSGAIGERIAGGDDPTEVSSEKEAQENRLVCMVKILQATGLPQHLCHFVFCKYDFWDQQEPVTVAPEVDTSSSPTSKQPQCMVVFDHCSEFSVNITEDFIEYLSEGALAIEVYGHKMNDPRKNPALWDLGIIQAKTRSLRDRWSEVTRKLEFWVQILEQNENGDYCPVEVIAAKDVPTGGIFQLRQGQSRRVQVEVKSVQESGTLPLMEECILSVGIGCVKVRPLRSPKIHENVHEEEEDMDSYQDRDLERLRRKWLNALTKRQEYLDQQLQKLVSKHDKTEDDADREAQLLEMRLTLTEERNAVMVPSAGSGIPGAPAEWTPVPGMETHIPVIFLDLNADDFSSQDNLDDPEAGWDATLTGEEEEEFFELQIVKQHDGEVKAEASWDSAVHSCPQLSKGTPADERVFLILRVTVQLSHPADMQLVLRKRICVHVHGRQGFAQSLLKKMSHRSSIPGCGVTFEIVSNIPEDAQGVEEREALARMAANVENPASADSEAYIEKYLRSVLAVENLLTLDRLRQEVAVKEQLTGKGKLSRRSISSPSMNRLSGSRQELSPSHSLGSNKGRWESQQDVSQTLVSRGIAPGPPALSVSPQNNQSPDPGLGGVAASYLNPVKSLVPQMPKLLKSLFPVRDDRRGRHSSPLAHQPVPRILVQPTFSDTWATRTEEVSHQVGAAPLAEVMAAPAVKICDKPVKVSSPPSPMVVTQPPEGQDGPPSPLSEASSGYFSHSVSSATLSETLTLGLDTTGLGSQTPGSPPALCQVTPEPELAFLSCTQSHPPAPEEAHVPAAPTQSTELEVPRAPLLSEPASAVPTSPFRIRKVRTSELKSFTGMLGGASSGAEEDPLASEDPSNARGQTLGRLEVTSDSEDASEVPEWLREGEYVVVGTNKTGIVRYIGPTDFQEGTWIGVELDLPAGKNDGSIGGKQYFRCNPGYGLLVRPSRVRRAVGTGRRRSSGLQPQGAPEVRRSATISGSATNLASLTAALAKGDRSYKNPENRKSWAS
UniProt Q93008: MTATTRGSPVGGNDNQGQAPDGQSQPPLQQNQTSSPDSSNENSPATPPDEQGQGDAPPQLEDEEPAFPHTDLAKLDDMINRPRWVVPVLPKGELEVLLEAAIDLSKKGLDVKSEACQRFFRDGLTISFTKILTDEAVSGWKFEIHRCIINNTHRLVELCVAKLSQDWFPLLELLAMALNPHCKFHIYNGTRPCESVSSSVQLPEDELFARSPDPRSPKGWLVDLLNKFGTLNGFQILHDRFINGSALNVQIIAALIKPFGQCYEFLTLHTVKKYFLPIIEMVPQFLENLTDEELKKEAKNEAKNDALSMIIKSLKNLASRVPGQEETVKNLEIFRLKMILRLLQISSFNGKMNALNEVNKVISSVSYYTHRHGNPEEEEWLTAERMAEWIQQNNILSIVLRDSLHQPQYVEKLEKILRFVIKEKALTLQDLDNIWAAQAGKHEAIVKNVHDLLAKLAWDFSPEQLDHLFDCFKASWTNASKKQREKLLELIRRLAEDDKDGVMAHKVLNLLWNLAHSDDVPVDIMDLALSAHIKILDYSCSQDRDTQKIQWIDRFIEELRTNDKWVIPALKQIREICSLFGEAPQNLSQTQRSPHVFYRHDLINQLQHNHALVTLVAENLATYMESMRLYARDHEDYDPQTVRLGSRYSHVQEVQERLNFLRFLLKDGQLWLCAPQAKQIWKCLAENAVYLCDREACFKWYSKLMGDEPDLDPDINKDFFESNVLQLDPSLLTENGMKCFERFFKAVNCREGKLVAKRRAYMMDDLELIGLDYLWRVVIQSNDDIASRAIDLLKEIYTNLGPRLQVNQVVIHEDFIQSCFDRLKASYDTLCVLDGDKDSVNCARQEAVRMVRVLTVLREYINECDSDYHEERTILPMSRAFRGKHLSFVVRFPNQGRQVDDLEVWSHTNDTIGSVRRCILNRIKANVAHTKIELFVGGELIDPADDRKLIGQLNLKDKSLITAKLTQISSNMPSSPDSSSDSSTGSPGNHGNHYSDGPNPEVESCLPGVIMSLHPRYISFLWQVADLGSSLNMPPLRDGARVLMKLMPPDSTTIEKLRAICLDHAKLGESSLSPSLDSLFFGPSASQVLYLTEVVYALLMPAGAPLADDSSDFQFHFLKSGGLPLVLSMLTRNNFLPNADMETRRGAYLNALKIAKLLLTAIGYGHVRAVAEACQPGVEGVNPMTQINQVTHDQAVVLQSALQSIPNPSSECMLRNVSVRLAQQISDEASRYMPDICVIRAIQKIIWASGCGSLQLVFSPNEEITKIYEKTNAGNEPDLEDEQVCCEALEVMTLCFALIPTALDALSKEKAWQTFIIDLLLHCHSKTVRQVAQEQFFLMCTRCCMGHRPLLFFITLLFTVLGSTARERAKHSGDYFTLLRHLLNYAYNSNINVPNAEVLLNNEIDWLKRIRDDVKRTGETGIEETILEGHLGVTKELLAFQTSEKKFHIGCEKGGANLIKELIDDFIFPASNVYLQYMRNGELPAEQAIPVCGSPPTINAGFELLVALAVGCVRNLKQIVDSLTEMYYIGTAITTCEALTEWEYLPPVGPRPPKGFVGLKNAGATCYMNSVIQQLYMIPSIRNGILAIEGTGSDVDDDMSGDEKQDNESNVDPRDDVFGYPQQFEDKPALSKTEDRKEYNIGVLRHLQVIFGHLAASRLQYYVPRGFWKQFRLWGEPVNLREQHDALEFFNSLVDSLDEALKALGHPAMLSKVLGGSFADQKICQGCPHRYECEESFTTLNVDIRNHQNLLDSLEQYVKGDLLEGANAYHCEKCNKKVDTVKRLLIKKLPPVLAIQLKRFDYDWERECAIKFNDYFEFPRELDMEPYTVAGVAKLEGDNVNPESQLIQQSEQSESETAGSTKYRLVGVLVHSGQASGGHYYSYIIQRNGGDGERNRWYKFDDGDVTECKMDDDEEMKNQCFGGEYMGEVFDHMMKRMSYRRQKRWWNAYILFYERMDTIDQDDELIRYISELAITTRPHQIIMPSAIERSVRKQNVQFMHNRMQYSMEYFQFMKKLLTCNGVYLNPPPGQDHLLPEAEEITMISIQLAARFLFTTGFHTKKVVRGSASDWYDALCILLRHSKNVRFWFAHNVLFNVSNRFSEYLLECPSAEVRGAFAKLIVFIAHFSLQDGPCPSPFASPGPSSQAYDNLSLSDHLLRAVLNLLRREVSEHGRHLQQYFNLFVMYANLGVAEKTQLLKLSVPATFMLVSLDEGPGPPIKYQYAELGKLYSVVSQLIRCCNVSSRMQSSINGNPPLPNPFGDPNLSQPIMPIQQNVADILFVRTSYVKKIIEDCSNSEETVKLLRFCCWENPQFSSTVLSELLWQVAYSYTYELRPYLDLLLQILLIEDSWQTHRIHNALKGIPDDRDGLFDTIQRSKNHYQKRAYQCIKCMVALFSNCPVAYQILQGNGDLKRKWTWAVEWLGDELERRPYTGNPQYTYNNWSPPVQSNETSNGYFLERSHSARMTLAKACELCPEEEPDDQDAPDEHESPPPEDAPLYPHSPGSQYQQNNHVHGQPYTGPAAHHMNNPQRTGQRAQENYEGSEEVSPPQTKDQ

Assays:
[1] = biological target: Recombinant KIF13B used in the in vitro GST pull-down (UniProt Q9NQT8); assay: pull-down; in vitro GST pull-down using recombinant proteins; both purified
[2] = biological target: Kinesin family member 13b (KIF13B), endogenous in primary mouse BMDMs (mouse (endogenous in primary BMDMs)) (UniProt E9Q4K7); assay: co-IP; endogenous co-IP in primary BMDMs; bait not told in the text shown
[3] = biological target: Full-length KIF13B overexpressed in THP1-derived macrophages (human) (UniProt Q9NQT8); assay: co-IP; semi-exogenous co-IP in THP1-derived macrophages overexpressing full-length KIF13B or its functional domains (Motor, FHA, RLIP)

Which binding [1] does the source give for “Recombinant USP9X used in the in vitro GST pull-down (from UniProt Q93008 1-2554) (enzyme)” here?
The binding was “binds”.

How did the binding [2] turn out when “Transcription factor EB (TFEB), endogenous in primary mouse BMDMs (from UniProt Q9R210 1-475)” was run?
Its binding is “binds”.

For “USP9X, endogenous in THP1-derived macrophages (from UniProt Q93008 1-2554) (enzyme)”, which binding [3] is on record?
The binding was “binds”.

Which binding [2] does the source give for “Ubiquitin specific peptidase 9 x-linked (USP9X), endogenous in primary mouse BMDMs (from UniProt P70398 1-2559) (enzyme)” here?
Its binding is “binds”.
